{"source": "PubChem BioAssay AID743454 (Peter MacCallum Cancer Centre, 2014)", "test": "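Search for knock-downs that restore vorinostat killing in resistant colon cancer cells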 (primary screen)", "system": "human HCT116-VR colon cancer cells, selected for vorinostat resistance", "knock-down reagent": "siRNA pool against human genes, 40 nM siRNA pool", "time to read-out": "vorinostat for 24 h, read-out about 72 h after transfection", "challenge": "vorinostat at 2.5 µM final", "read-out": "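Two measures, CellTiter-Fluor viability and luminescent caspase 3/7 activity, each as fold change against same-plate mock wells, mean of duplicates, then screen-wide robust z-score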", "reading the numbers": "viability robust z-score: higher = more viable cells than screen typical; caspase robust z-score: higher = more caspase 3/7 activity than screen typical", "hit rule": "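a knock-down is a hit when classed RV1 or RV2 for lowered viability, or CA1 or CA2 for caspase activation; those lethal without drug were dropped; hits were retested singly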", "note": "Here is a random part of about 18,000 reagents. Of all reagents, 450 (2.5%) got an active call. 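Single biological run; no consistent viability z cut-off exists, so the class columns, not z-scores, define the calls.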 A number with no mark means an inactive call."}
{"gene":"ASCC2 (GeneID 84164)","viability hit class":"no change","caspase hit class":"no change","viability robust z-score":0.2,"caspase robust z-score":0.04}
{"gene":"PRRG2 (GeneID 5639)","viability hit class":"no change","caspase hit class":"no change","viability robust z-score":0.17,"caspase robust z-score":0}
{"gene":"LY96 (GeneID 23643)","viability hit class":"no change","caspase hit class":"no change","viability robust z-score":0.76,"caspase robust z-score":-0.82}
{"gene":"KRTAP9-4 (GeneID 85280)","viability hit class":"no change","caspase hit class":"no change","viability robust z-score":0.26,"caspase robust z-score":1.6}
{"gene":"ARHGEF4 (GeneID 50649)","viability hit class":"no change","caspase hit class":"no change","viability robust z-score":-0.68,"caspase robust z-score":2.34}
{"gene":"RAB32 (GeneID 10981)","viability hit class":"no change","caspase hit class":"no change","viability robust z-score":-1.32,"caspase robust z-score":-0.9}
{"gene":"P3H4 (GeneID 10609)","viability hit class":"no change","caspase hit class":"no change","viability robust z-score":-1.6,"caspase robust z-score":0.56}
{"gene":"CDK5RAP2 (GeneID 55755)","viability hit class":"no change","caspase hit class":"no change","viability robust z-score":-0.16,"caspase robust z-score":0.66}
{"gene":"TRIM71 (GeneID 131405)","viability hit class":"no change (active)","caspase hit class":"CA1 (caspase activation)","viability robust z-score":0,"caspase robust z-score":6}
{"gene":"KLRC3 (GeneID 3823)","viability hit class":"no change","caspase hit class":"no change","viability robust z-score":-2.48,"caspase robust z-score":1.12}
{"gene":"LOC100288884 (retired record) (GeneID 100288884)","viability hit class":"no change","caspase hit class":"no change","viability robust z-score":-1.96,"caspase robust z-score":4.68}

In a second layout: 2 of the entries above
gene | viability hit class | caspase hit class | viability robust z-score | caspase robust z-score
ARHGEF4 (GeneID 50649) | no change | no change | -0.68 | 2.34
RAB32 (GeneID 10981) | no change | no change | -1.32 | -0.9

The listing continues:
{"gene":"KXD1 (GeneID 79036)","viability hit class":"no change","caspase hit class":"no change","viability robust z-score":-0.98,"caspase robust z-score":-0.7}
{"gene":"TXNL4A (GeneID 10907)","viability hit class":"no change","caspase hit class":"no change","viability robust z-score":-0.36,"caspase robust z-score":3.27}
{"gene":"ACOT4 (GeneID 122970)","viability hit class":"no change","caspase hit class":"no change","viability robust z-score":0.98,"caspase robust z-score":-0.5}
{"gene":"RARB (GeneID 5915)","viability hit class":"no change","caspase hit class":"no change","viability robust z-score":0.84,"caspase robust z-score":3.86}
{"gene":"KLHL18 (GeneID 23276)","viability hit class":"no change","caspase hit class":"no change","viability robust z-score":0.56,"caspase robust z-score":-1.22}
{"gene":"TBC1D26 (GeneID 353149)","viability hit class":"no change","caspase hit class":"no change","viability robust z-score":-0.64,"caspase robust z-score":-0.68}
{"gene":"ABCA6 (GeneID 23460)","viability hit class":"no change","caspase hit class":"no change","viability robust z-score":-0.25,"caspase robust z-score":0.14}
{"gene":"P2RX1 (GeneID 5023)","viability hit class":"no change","caspase hit class":"no change","viability robust z-score":-1.84,"caspase robust z-score":5.04}
{"gene":"ABHD13 (GeneID 84945)","viability hit class":"no change","caspase hit class":"no change","viability robust z-score":-0.3,"caspase robust z-score":0.69}
{"gene":"FCRL5 (GeneID 83416)","viability hit class":"no change","caspase hit class":"no change","viability robust z-score":0.54,"caspase robust z-score":0.31}
